Drawing on publication PMC12789345, this text covers binding for 1 molecule.

By UniProt entry, the sequences of proteins in these tests, tags left out.
UniProt Q04207: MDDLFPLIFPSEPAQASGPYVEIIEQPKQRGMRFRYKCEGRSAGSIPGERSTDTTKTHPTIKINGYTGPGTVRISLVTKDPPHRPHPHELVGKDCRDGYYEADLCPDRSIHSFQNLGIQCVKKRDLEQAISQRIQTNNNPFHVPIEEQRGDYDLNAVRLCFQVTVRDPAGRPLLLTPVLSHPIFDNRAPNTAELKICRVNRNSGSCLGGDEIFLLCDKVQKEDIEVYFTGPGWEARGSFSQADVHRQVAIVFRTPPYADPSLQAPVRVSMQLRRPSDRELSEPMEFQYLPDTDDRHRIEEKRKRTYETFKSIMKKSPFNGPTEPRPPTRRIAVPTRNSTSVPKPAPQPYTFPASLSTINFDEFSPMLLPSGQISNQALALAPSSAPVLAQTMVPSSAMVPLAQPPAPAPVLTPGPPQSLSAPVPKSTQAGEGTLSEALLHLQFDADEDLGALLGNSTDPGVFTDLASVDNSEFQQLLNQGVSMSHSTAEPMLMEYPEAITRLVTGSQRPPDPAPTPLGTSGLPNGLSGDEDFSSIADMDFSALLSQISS

The test has as its target NF-κB p65 (mouse (endogenous in spinal cord NSCs of newborn C57BL/6 mice)) (UniProt Q04207). Nature of the test: co-IP; NSC lysates immunoprecipitated with anti-NF-κB p65 antibody on protein A+G magnetic beads, 4°C overnight, blotted for Keap1 and Nrf2; normal rabbit IgG as negative control.

Results are given in words; binding and its absence hold for the method and conditions named. Binding seen in cells or lysates may run through a third protein. Some binding calls cover weakened binding; strength is not graded here.

B1: Nuclear transcription factor erythroid-2 related factor 2 (Nrf2) (protein, UniProt Q60795 1-597)
chain: MMDLELPPPGLQSQQDMDLIDILWRQDIDLGVSREVFDFSQRQKDYELEKQKKLEKERQEQLQKEQEKAFFAQFQLDEETGEFLPIQPAQHIQTDTSGSASYSQVAHIPKQDALYFEDCMQLLAETFPFVDDHESLALDIPSHAESSVFTAPHQAQSLNSSLEAAMTDLSSIEQDMEQVWQELFSIPELQCLNTENKQLADTTAVPSPEATLTEMDSNYHFYSSISSLEKEVGNCGPHFLHGFEDSFSSILSTDDASQLTSLDSNPTLNTDFGDEFYSAFIAEPSDGGSMPSSAAISQSLSELLDGTIEGCDLSLCKAFNPKHAEGTMEFNDSDSGISLNTSPSRASPEHSVESSIYGDPPPGFSDSEMEELDSAPGSVKQNGPKAQPAHSPGDTVQPLSPAQGHSAPMRESQCENTTKKEVPVSPGHQKAPFTKDKHSSRLEAHLTRDELRAKALHIPFPVEKIINLPVDDFNEMMSKEQFNEAQLALIRDIRRRGKNKVAAQNCRKRKLENIVELEQDLGHLKDEREKLLREKGENDRNLHLLKRRLSTLYLEVFSMLRDEDGKPYSPSEYSLQQTRDGNVFLVPKSKKPDTKKN
With B1, the binding entry was “binds”.
